Here are results for one substance from paper PMC9898758, “Analysis of a degron-containing reporter protein GFP-CL1 reveals a role for SUMO1 in cytosolic protein quality control” (The Journal of Biological Chemistry, 2022).

Protein sequences, listed by entry. Tags and fused reporters are not part of them. Residues count along the entry.
UniProt Q12306, residues 13-98: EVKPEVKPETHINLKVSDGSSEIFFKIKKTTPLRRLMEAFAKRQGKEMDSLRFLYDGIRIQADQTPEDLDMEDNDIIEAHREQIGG

This assay addresses T1, MBP-Slx5 (UniProt P32828 1-619).
T1 construct: Plasmid was a gift from Dr Oliver Kerscher; also called MBP-tagged SLX5; source: E. coli Rosetta, purified (amylose resin)
T1 sequence (looked up): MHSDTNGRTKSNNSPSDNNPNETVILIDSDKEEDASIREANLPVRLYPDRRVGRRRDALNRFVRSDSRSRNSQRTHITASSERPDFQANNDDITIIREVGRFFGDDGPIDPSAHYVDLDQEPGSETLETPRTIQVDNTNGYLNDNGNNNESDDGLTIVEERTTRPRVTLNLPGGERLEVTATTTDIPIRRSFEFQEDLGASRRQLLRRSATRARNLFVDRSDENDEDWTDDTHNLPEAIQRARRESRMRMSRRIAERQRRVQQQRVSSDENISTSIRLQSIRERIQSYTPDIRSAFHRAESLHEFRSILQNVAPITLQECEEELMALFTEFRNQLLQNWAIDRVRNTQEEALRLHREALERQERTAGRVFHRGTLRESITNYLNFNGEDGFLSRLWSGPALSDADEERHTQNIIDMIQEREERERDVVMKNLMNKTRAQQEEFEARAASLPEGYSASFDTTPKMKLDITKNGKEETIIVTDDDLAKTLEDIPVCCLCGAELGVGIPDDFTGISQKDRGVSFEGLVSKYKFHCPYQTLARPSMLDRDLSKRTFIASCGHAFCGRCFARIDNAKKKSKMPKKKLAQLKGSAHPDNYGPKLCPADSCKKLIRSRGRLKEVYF
The assay is described as follows: pull-down; MBP-Slx5 or MBP alone immobilised on amylose beads, incubated with purified GST, GST-Smt3 or GST-Smt3-K38/40A; washes, SDS-PAGE, immunoblot with anti-MBP and anti-GST; both purified.

No constants are given. Whether binding was seen depends on the method and setting. Some entries that bind do so weakly or less than the wild type. Tags and fused reporters may be left off the sequences shown.

In the case of “GST-tagged WT Smt3 (from UniProt Q12306 13-98)”, the binding result is given as “binds”.
